Data published in PMC3017772, “The CaaX specificities of Arabidopsis protein prenyltransferases explain era1 and ggb phenotypes” (BMC Plant Biology, 2010).
No constants are given. Whether binding was seen depends on the method and setting. Some entries that bind do so weakly or less than the wild type. Sequences can lack the tags named with a protein.

Chains of the proteins cited; added tags and fusions are not shown.
UniProt Q9LX33: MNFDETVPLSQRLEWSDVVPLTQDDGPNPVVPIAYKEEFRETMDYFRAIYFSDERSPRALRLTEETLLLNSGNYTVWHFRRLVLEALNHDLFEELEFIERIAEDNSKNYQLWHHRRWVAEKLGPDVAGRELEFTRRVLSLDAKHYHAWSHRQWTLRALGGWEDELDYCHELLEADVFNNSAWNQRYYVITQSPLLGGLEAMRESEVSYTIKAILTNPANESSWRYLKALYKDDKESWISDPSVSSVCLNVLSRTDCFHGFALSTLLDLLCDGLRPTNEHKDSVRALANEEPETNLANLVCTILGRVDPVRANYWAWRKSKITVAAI

Target: T1, ENHANCED RESPONSE TO ABA1 (ERA1), beta-subunit of PFT, with amino terminal 6xHis tag (Arabidopsis (ecotype Col-0)) (UniProt Q38920)
T1 sequence: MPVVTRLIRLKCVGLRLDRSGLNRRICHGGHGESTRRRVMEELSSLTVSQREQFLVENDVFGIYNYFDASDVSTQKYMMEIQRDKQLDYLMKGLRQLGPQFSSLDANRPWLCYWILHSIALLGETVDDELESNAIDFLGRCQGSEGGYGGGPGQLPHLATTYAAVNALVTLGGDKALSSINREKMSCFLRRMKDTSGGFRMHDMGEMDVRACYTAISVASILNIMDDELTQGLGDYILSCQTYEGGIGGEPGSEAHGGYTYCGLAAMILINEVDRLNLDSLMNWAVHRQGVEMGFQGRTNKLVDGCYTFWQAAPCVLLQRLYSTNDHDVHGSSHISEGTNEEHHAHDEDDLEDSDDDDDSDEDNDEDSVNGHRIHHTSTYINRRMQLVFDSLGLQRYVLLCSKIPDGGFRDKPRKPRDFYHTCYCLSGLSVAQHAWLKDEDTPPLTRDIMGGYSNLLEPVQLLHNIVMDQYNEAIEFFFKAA
Experiment: co-purification by immobilized metal affinity chromatography; FLAG-tagged alpha-subunit and 6xHis-tagged beta-subunit co-expressed in E. coli; extract on Talon Co2+ resin at 4°C, 50 mM sodium phosphate pH 7.0, 0.3 M NaCl; the purified enzyme was then assayed for prenyltransferase activity

PLURIPETALA (PLP), common alpha-subunit of PFT and PGGT1, with amino terminal FLAG tag (from UniProt Q9LX33 1-326)
binding: binds
